Results: the supplement of paper PMC10849652
This is one part of the list.

Sequences of proteins named here, by UniProt entry; tags and fusion partners are left off. A change or cut given only in a name is not applied to a line headed by its entry.
UniProt Q96H20: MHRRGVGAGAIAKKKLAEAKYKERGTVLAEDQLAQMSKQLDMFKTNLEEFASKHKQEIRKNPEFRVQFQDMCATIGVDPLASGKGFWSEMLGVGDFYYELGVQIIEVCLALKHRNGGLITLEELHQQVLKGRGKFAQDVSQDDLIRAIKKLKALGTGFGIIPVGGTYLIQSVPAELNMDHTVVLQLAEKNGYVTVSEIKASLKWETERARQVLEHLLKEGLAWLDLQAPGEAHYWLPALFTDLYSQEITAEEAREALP
UniProt Q92922, whole entry, looked up: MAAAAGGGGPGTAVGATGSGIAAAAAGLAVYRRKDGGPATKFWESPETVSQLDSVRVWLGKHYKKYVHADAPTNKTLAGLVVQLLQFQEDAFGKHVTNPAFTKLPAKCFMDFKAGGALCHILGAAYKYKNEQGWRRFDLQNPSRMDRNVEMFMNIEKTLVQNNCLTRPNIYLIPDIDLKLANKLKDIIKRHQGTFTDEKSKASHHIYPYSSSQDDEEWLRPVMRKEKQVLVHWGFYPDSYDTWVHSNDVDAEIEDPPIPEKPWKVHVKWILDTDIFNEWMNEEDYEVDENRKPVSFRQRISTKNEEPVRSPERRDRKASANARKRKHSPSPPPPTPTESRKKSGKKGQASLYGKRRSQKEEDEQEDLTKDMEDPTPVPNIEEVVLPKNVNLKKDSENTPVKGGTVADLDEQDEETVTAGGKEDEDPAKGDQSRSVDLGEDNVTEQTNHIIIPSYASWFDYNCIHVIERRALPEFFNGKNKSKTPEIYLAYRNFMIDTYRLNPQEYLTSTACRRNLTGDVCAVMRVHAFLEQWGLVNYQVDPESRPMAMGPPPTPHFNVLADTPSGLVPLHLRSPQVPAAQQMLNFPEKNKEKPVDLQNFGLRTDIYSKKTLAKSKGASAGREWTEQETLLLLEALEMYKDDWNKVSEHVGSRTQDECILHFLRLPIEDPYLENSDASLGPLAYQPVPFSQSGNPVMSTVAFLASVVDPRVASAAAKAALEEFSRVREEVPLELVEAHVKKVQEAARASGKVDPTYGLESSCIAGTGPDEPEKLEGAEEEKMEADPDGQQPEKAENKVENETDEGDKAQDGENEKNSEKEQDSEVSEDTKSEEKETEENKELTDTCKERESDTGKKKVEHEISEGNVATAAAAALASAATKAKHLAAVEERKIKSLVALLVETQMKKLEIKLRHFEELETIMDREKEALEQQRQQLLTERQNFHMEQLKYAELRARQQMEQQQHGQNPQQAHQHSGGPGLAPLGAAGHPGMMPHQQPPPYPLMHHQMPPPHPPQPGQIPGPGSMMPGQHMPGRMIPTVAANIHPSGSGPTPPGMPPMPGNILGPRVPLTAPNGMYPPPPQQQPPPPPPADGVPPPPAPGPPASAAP
UniProt Q96EX1: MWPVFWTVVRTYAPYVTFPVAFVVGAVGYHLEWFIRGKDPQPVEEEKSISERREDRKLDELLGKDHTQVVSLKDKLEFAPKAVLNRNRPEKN
UniProt O95347, whole entry, looked up: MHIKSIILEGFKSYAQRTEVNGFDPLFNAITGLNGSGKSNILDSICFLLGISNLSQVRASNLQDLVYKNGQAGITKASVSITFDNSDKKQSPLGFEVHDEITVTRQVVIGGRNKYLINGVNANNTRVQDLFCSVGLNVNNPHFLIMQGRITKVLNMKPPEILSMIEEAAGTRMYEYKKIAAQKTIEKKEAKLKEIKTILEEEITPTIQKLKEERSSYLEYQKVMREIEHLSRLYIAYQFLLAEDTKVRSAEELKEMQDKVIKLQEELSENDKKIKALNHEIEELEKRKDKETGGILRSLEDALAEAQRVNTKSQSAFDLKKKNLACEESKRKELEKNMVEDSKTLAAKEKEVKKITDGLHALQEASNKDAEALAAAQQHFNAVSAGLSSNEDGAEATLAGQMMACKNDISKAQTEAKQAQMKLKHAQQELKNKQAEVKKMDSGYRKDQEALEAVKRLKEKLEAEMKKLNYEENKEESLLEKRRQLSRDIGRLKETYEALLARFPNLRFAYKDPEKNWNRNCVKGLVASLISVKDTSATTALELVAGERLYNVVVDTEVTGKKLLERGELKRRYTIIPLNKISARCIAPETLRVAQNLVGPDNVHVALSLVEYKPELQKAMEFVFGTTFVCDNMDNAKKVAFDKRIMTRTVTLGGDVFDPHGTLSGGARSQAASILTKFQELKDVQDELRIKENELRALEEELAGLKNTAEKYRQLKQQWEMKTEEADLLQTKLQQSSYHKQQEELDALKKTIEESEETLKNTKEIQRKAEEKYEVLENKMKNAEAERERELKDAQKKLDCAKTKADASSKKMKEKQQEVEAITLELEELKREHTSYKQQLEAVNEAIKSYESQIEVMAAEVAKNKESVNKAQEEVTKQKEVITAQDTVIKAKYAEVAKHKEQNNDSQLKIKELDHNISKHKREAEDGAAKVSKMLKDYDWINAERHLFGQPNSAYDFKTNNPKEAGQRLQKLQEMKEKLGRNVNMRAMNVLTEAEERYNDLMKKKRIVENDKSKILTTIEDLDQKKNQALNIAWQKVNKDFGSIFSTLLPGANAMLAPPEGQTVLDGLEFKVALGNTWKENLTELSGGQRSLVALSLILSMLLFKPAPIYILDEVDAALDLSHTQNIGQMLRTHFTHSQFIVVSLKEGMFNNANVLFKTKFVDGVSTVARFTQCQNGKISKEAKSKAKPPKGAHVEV
UniProt Q7KZF4: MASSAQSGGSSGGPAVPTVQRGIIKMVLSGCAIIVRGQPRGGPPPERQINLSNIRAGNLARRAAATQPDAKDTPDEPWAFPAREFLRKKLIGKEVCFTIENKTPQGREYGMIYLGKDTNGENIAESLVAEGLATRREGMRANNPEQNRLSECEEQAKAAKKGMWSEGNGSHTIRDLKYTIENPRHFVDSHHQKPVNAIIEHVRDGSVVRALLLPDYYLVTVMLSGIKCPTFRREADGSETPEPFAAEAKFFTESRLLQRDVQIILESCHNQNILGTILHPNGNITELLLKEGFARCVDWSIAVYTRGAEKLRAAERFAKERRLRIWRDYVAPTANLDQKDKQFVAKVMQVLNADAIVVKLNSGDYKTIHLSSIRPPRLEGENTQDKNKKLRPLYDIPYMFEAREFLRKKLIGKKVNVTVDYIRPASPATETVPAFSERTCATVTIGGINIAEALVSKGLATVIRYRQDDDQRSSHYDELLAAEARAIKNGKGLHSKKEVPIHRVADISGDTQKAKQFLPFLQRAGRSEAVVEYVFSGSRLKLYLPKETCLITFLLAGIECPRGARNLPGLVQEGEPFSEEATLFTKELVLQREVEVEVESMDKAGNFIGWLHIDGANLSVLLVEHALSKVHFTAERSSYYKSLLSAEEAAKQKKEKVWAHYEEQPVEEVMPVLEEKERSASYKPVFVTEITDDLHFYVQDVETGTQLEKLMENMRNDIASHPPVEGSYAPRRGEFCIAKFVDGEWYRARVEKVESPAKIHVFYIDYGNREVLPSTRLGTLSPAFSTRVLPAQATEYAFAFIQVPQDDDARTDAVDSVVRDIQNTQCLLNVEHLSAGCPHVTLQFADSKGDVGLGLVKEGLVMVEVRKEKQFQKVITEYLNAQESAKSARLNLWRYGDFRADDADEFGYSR
UniProt P62316, whole entry, looked up: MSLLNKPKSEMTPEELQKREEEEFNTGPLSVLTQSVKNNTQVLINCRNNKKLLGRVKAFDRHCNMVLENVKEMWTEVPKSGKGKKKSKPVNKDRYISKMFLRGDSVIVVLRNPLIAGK
UniProt Q15506: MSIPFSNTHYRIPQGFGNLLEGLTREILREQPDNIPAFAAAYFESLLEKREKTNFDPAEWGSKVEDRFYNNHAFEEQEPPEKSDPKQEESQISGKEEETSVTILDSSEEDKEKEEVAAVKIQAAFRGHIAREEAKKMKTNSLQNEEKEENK
UniProt P09661: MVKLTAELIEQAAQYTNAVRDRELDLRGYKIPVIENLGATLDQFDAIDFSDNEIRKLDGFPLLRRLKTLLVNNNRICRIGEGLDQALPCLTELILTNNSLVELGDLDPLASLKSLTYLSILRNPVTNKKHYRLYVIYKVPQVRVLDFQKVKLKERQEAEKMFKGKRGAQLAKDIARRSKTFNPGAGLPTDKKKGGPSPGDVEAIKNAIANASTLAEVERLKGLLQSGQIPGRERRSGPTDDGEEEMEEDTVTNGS
UniProt P62308, whole entry, looked up: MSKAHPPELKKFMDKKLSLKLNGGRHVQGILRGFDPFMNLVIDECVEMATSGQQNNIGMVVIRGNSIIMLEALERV
UniProt P09012, whole entry, looked up: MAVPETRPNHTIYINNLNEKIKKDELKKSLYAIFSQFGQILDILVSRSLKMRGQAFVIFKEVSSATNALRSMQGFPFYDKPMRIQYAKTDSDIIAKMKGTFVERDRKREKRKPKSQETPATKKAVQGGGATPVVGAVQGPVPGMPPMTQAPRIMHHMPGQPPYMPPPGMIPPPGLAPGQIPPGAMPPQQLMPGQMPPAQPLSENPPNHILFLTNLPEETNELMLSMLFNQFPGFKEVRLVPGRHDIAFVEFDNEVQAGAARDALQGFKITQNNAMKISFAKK
UniProt Q96SB8: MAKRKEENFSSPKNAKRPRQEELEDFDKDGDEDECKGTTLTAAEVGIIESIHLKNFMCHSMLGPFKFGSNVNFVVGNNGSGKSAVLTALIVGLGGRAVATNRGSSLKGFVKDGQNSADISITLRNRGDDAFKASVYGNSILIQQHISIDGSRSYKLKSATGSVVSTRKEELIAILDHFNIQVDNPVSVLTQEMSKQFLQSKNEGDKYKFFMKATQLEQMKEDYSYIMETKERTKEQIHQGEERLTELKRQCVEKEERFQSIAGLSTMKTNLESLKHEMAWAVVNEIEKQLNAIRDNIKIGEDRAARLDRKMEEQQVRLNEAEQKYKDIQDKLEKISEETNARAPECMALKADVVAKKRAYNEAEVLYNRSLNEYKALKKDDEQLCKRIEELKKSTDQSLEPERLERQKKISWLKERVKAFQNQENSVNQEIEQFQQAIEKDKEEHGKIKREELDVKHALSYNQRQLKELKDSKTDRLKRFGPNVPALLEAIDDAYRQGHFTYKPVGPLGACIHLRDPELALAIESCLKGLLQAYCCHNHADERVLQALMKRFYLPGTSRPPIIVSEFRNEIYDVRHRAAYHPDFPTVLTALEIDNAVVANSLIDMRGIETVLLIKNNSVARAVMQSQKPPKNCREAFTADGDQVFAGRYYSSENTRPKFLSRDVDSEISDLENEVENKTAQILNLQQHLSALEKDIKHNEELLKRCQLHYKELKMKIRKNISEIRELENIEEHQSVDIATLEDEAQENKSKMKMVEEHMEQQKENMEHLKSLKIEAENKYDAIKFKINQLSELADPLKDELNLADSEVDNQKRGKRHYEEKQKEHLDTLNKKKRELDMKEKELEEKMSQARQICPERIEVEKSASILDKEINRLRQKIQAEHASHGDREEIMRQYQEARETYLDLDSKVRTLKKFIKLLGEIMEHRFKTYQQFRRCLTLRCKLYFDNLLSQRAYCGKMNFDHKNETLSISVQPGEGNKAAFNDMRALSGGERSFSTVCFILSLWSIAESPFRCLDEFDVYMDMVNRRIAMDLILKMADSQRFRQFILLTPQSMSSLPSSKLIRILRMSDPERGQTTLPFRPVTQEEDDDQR
UniProt P28370, whole entry, looked up: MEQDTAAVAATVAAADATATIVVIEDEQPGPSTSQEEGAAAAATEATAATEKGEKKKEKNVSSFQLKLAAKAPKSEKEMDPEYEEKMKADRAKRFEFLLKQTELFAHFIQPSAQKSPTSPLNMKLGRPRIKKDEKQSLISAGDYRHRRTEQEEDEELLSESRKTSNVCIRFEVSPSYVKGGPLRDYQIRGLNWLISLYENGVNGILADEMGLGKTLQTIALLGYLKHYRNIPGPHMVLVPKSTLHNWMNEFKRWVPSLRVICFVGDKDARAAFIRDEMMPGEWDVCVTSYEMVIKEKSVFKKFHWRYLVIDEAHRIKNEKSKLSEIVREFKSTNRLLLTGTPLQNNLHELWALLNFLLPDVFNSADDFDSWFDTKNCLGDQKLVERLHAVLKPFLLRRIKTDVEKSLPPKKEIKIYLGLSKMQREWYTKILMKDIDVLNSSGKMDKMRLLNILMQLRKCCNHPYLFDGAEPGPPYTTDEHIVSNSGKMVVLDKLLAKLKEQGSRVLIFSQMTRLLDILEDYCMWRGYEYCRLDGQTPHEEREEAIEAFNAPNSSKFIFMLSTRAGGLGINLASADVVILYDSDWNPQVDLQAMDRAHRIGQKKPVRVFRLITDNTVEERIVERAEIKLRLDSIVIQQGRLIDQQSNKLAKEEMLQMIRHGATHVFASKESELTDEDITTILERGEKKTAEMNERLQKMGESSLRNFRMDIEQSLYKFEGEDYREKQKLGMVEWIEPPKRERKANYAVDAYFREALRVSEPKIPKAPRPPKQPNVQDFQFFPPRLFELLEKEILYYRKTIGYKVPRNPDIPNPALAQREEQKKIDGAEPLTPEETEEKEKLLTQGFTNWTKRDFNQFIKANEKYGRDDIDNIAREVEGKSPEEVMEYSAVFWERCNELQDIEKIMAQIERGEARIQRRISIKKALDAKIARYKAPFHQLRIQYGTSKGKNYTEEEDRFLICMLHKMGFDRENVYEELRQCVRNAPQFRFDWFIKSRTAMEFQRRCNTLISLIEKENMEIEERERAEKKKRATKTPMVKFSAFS

compound: c1cc(OCCN2CCCCC2)cc(-c2n[nH]c3ccc(-c4nnc[nH]4)cc23)c1; test: log2 fold change, soluble protein after heating vs DMSO (PISA); higher = thermal stabilisation; K562 cells, 10 uM, 30 min; active = over 0.2 and 3.5 SD of the protein, either way, in both replicates (recomputed)
Summary of the method: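 For each measurement, 10 μM compound was applied for 30 min to K562 cells at 2×10^6 cells/mL. Aliquots were heated for 3 min across 48°C-58°C, pooled, and extracted in PBS with 0.5% NP-40 at 4°C; the supernatant after 21,000xg for 90 min was soluble protein. This was quantified by TMTpro 16plex LC-MS/MS with channel sums equalised, and thermal stability was reported relative to control samples from duplicates, on a log2 fold-change scale.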

log2 fold change, inactive:
SMARCC2 (UniProt Q8TAQ2) -0.033
SNF8 (UniProt Q96H20) -0.017
SNCA (UniProt P37840) -0.048
SMS (UniProt P52788) -0.003
SMARCC1 (UniProt Q92922) -0.28
SLC9A1 (UniProt P19634) -0.013
SMIM12 (UniProt Q96EX1) 0.298
SMC2 (UniProt O95347) -0.006
SNU13, A0A3B3IUA2 -0.017
SMU1 (UniProt Q2TAY7) -0.023
SOCS2 (UniProt O14508) -0.053
SND1 (UniProt Q7KZF4) -0.203
SNRPD2 (UniProt P62316) 0.049
SNAP23 (UniProt O00161) -0.06
SNRPF (UniProt P62306) -0.153
SPA17 (UniProt Q15506) 0.111
SNRNP70 (UniProt P08621) -0.179
SLCO4A1 (UniProt Q96BD0) -0.062
SMC4 (UniProt Q9NTJ3) -0.043
SNRPA1 (UniProt P09661) -0.041
SMN1 (UniProt Q16637) -0.019
SMIM8 (UniProt Q96KF7) -0.153
SNRPC (UniProt Q5TAL2) 0.106
SMC3 (UniProt Q9UQE7) -0.087
SMC1A (UniProt Q14683) -0.089
SPAG5 (UniProt Q96R06) -0.091
SNRNP200 (UniProt O75643) -0.063
SLMAP (UniProt Q14BN4) -0.083
SNRPG (UniProt P62308) -0.037
SNAP29 (UniProt O95721) -0.015
SNRPA (UniProt P09012) -0.047
SMC6 isoform 2 (UniProt Q96SB8) -0.02
SMC1B isoform 3 (UniProt Q8NDV3) 0.056
SMIM26, A0A096LP01 -0.001
SMARCA1 (UniProt P28370) -0.073
SLC9A3R2 (UniProt Q15599) -0.111
SNRPC (UniProt P09234) -0.044
SNRPE (UniProt P62304) -0.038
SNAPIN (UniProt O95295) -0.043
SMYD5 (UniProt Q6GMV2) 0.051

3 entries picked at random from those above:
log2 fold change, inactive:
SMARCA1 (UniProt P28370) -0.073
SMC2 (UniProt O95347) -0.006
SNU13, A0A3B3IUA2 -0.017
